Here are results for 9 molecules from paper PMC7694386.

By UniProt entry, the sequences of proteins in these tests, tags left out.
UniProt O95817: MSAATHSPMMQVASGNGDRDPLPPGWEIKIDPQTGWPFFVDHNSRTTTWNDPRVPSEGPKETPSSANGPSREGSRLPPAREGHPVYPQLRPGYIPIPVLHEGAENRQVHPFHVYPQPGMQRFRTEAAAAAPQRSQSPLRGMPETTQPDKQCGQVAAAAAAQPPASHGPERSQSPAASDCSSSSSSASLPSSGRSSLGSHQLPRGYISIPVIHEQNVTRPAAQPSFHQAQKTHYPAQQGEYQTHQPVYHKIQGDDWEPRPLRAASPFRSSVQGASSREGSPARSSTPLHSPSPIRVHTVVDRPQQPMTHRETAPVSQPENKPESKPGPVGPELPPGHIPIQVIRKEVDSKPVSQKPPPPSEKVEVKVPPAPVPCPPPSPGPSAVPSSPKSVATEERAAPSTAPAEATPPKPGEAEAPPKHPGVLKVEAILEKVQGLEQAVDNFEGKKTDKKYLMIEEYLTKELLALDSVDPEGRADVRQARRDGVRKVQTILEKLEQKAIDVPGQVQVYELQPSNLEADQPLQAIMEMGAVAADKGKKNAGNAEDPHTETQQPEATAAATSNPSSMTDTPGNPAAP

In this assay the target is BAG3 (BCL-2-associated athanogene 3) (human (endogenous in HEK293T)) (UniProt O95817). Put plainly: affinity purification with mass spectrometry; endogenous BAG3 immunoprecipitated with anti-BAG3 antibody and Protein A/G magnetic beads from HEK293T lysate; cells treated with DMSO (basal) or 10 µM MG132 for 6 h; IgG IP (MG132_IgG) as control; label-free quantification, three biological replicates.

Results are given in words; binding and its absence hold for the method and conditions named. In cells and extracts the contact can be indirect. These calls come from enrichment with a bait or labelling near it, and not all partners need be listed.

B1: PFAS (protein, UniProt O15067 1-1338)
chain: MSPVLHFYVRPSGHEGAAPGHTRRKLQGKLPELQGVETELCYNVNWTAEALPSAEETKKLMWLFGCPLLLDDVARESWLLPGSNDLLLEVGPRLNFSTPTSTNIVSVCRATGLGPVDRVETTRRYRLSFAHPPSAEVEAIALATLHDRMTEQHFPHPIQSFSPESMPEPLNGPINILGEGRLALEKANQELGLALDSWDLDFYTKRFQELQRNPSTVEAFDLAQSNSEHSRHWFFKGQLHVDGQKLVHSLFESIMSTQESSNPNNVLKFCDNSSAIQGKEVRFLRPEDPTRPSRFQQQQGLRHVVFTAETHNFPTGVCPFSGATTGTGGRIRDVQCTGRGAHVVAGTAGYCFGNLHIPGYNLPWEDPSFQYPGNFARPLEVAIEASNGASDYGNKFGEPVLAGFARSLGLQLPDGQRREWIKPIMFSGGIGSMEADHISKEAPEPGMEVVKVGGPVYRIGVGGGAASSVQVQGDNTSDLDFGAVQRGDPEMEQKMNRVIRACVEAPKGNPICSLHDQGAGGNGNVLKELSDPAGAIIYTSRFQLGDPTLNALEIWGAEYQESNALLLRSPNRDFLTHVSARERCPACFVGTITGDRRIVLVDDRECPVRRNGQGDAPPTPLPTPVDLELEWVLGKMPRKEFFLQRKPPMLQPLALPPGLSVHQALERVLRLPAVASKRYLTNKVDRSVGGLVAQQQCVGPLQTPLADVAVVALSHEELIGAATALGEQPVKSLLDPKVAARLAVAEALTNLVFALVTDLRDVKCSGNWMWAAKLPGEGAALADACEAMVAVMAALGVAVDGGKDSLSMAARVGTETVRAPGSLVISAYAVCPDITATVTPDLKHPEGRGHLLYVALSPGQHRLGGTALAQCFSQLGEHPPDLDLPENLVRAFSITQGLLKDRLLCSGHDVSDGGLVTCLLEMAFAGNCGLQVDVPVPRVDVLSVLFAEEPGLVLEVQEPDLAQVLKRYRDAGLHCLELGHTGEAGPHAMVRVSVNGAVVLEEPVGELRALWEETSFQLDRLQAEPRCVAEEERGLRERMGPSYCLPPTFPKASVPREPGGPSPRVAILREEGSNGDREMADAFHLAGFEVWDVTMQDLCSGAIGLDTFRGVAFVGGFSYADVLGSAKGWAAAVTFHPRAGAELRRFRKRPDTFSLGVCNGCQLLALLGWVGGDPNEDAAEMGPDSQPARPGLLLRHNLSGRYESRWASVRVGPGPALMLRGMEGAVLPVWSAHGEGYVAFSSPELQAQIEARGLAPLHWADDDGNPTEQYPLNPNGSPGGVAGICSCDGRHLAVMPHPERAVRPWQWAWRPPPFDTLTTSPWLQLFINARNWTLEGSC
As to B1, the binding result was “binds”.

B2: small HSP HSPB8 (protein, UniProt Q9UJY1 1-196)
chain: MADGQMPFSCHYPSRLRRDPFRDSPLSSRLLDDGFGMDPFPDDLTASWPDWALPRLSSAWPGTLRSGMVPRGPTATARFGVPAEGRTPPPFPGEPWKVCVNVHSFKPEELMVKTKDGYVEVSGKHEEKQQEGGIVSKNFTKKIQLPAEVDPVTVFASLSPEGLLIIEAPQVPPYSTFGESSFNNELPQDSQEVTCT
Regarding B2, the binding entry was “binds”.

B3: NUFIP2 (protein, UniProt Q7Z417 1-695)
chain: MEEKPGQPQPQHHHSHHHPHHHPQQQQQQPHHHHHYYFYNHSHNHHHHHHHQQPHQYLQHGAEGSPKAQPKPLKHEQKHTLQQHQETPKKKTGYGELNGNAGEREISLKNLSSDEATNPISRVLNGNQQVVDTSLKQTVKANTFGKAGIKTKNFIQKNSMDKKNGKSYENKSGENQSVDKSDTIPIPNGVVTNNSGYITNGYMGKGADNDGSGSESGYTTPKKRKARRNSAKGCENLNIVQDKIMQQETSVPTLKQGLETFKPDYSEQKGNRVDGSKPIWKYETGPGGTSRGKPAVGDMLRKSSDSKPGVSSKKFDDRPKGKHASAVASKEDSWTLFKPPPVFPVDNSSAKIVPKISYASKVKENLNKTIQNSSVSPTSSSSSSSSTGETQTQSSSRLSQVPMSALKSVTSANFSNGPVLAGTDGNVYPPGGQPLLTTAANTLTPISSGTDSVLQDMSLTSAAVEQIKTSLFIYPSNMQTMLLSTAQVDLPSQTDQQNLGDIFQNQWGLSFINEPSAGPETVTGKSSEHKVMEVTFQGEYPATLVSQGAEIIPSGTEHPVFPKAYELEKRTSPQVLGSILKSGTTSESGALSLEPSHIGDLQKADTSSQGALVFLSKDYEIESQNPLASPTNTLLGSAKEQRYQRGLERNDSWGSFDLRAAIVYHTKEMESIWNLQKQDPKRIITYNEAMDSPDQ
Regarding B3, the binding entry is recorded as “binds”.

B4: MCM5 (protein, UniProt P33992 1-734)
chain: MSGFDDPGIFYSDSFGGDAQADEGQARKSQLQRRFKEFLRQYRVGTDRTGFTFKYRDELKRHYNLGEYWIEVEMEDLASFDEDLADYLYKQPAEHLQLLEEAAKEVADEVTRPRPSGEEVLQDIQVMLKSDASPSSIRSLKSDMMSHLVKIPGIIIAASAVRAKATRISIQCRSCRNTLTNIAMRPGLEGYALPRKCNTDQAGRPKCPLDPYFIMPDKCKCVDFQTLKLQELPDAVPHGEMPRHMQLYCDRYLCDKVVPGNRVTIMGIYSIKKFGLTTSRGRDRVGVGIRSSYIRVLGIQVDTDGSGRSFAGAVSPQEEEEFRRLAALPNVYEVISKSIAPSIFGGTDMKKAIACLLFGGSRKRLPDGLTRRGDINLLMLGDPGTAKSQLLKFVEKCSPIGVYTSGKGSSAAGLTASVMRDPSSRNFIMEGGAMVLADGGVVCIDEFDKMREDDRVAIHEAMEQQTISIAKAGITTTLNSRCSVLAAANSVFGRWDETKGEDNIDFMPTILSRFDMIFIVKDEHNEERDVMLAKHVITLHVSALTQTQAVEGEIDLAKLKKFIAYCRVKCGPRLSAEAAEKLKNRYIIMRSGARQHERDSDRRSSIPITVRQLEAIVRIAEALSKMKLQPFATEADVEEALRLFQVSTLDAALSGTLSGVEGFTSQEDQEMLSRIEKQLKRRFAIGSQVSEHSIIKDFTKQKYPEHAIHKVLQLMLRRGEIQHRMQRKVLYRLK
In the case of B4, the binding entry is reported as “binds”.

B5: BTB/POZ domain-containing protein KCTD1 (protein, UniProt Q719H9 1-257)
chain: MSRPLITRSPASPLNNQGIPTPAQLTKSNAPVHIDVGGHMYTSSLATLTKYPESRIGRLFDGTEPIVLDSLKQHYFIDRDGQMFRYILNFLRTSKLLIPDDFKDYTLLYEEAKYFQLQPMLLEMERWKQDRETGRFSRPCECLVVRVAPDLGERITLSGDKSLIEEVFPEIGDVMCNSVNAGWNHDSTHVIRFPLNGYCHLNSVQVLERLQQRGFEIVGSCGGGVDSSQFSEYVLRRELRRTPRVPSVIRIKQEPLD
With B5, the binding entry is “binds”.

B6: PMF1 (protein, UniProt Q6P1K2 1-205)
chain: MAEASSANLGSGCEEKRHEGSSSESVPPGTTISRVKLLDTMVDTFLQKLVAAGSYQRFTDCYKCFYQLQPAMTQQIYDKFIAQLQTSIREEISDIKEEGNLEAVLNALDKIVEEGKVRKEPAWRPSGIPEKDLHSVMAPYFLQQRDTLRRHVQKQEAENQQLADAVLAGRRQVEELQLQVQAQQQAWQALHREQRELVAVLREPE
For the molecule B6, the binding result was “binds”.

B7: Rab11 family-interacting protein 1 (protein, UniProt Q6WKZ4 1-1283)
chain: MSLMVSAGRGLGAVWSPTHVQVTVLQARGLRAKGPGGTSDAYAVIQVGKEKYATSVSERSLGAPVWREEATFELPSLLSSGPAAAATLQLTVLHRALLGLDKFLGRAEVDLRDLHRDQGRRKTQWYKLKSKPGKKDKERGEIEVDIQFMRNNMTASMFDLSMKDKSRNPFGKLKDKIKGKNKDSGSDTASAIIPSTTPSVDSDDESVVKDKKKKSKIKTLLSKSNLQKTPLSQSMSVLPTSKPEKVLLRPGDFQSQWDEDDNEDESSSASDVMSHKRTASTDLKQLNQVNFTLPKKEGLSFLGGLRSKNDVLSRSNVCINGNHVYLEQPEAKGEIKDSSPSSSPSPKGFRKKHLFSSTENLAAGSWKEPAEGGGLSSDRQLSESSTKDSLKSMTLPSYRPAPLVSGDLRENMAPANSEATKEAKESKKPESRRSSLLSLMTGKKDVAKGSEGENPLTVPGREKEGMLMGVKPGEDASGPAEDLVRRSEKDTAAVVSRQGSSLNLFEDVQITEPEAEPESKSEPRPPISSPRAPQTRAVKPRLEVSPEAQPTARLPSPTDSPSSLPPLPSSSGQASVPSELGHGADTQSSESPSVFSSLSSPIAAPISTSTPIESWPLVDRGQAKSEGPPLLPKAELQTESLTPVPNSGSSALGSLFKQPSFPANKGTEDSLMGRTRETGTEKNTSSLELEESLPEQPETGRQEEELPRFPCKKQDYSPSSGEAQEVPFALSLSSDGAVSPVGELAAGGDRDLESQAGSLVESKARDAAEEVAPPLPMGASVPSIDSMMRKLEEMGLNLRKDQKKTKKRVSFSEQLFTEEAVAGAALLVEGHSSCPQELNPAWSVAGNASDGEPPESPHAEDSERESVTTPGPATCGAPASPADHLLLPSQEESFSEVPMSEASSAKDTPLFRMEGEDALVTQYQSKASDHEGLLSDPLSDLQLVSDFKSPIMADLNLSLPSIPEVASDDERIDQVEDDGDQVEDDGETAKSSTLDIGALSLGLVVPCPERGKGPSGEADRLVLGEGLCDFRLQAPQASVTAPSEQTTEFGIHKPHLGKSSSLDKQLPGPSGGEEEKPMGNGSPSPPPGTSLDNPVPSPSPSEIFPVTHSFPSSAHSDTHHTSTAESQKKATAEGSAGRVENFGKRKPLLQAWVSPSETHPVSAQPGAGTGSAKHRLHPVKPMNAMATKVANCSLGTATIISENLNNEVMMKKYSPSDPAFAYAQLTHDELIQLVLKQKETISKKEFQVRELEDYIDNLLVRVMEETPNILRIPTQVGKKAGKM
Turning to B7, the binding result is “binds”.

B8: tRNA-splicing ligase RtcB homolog (protein, UniProt Q9Y3I0 1-505)
chain: MSRSYNDELQFLEKINKNCWRIKKGFVPNMQVEGVFYVNDALEKLMFEELRNACRGGGVGGFLPAMKQIGNVAALPGIVHRSIGLPDVHSGYGFAIGNMAAFDMNDPEAVVSPGGVGFDINCGVRLLRTNLDESDVQPVKEQLAQAMFDHIPVGVGSKGVIPMNAKDLEEALEMGVDWSLREGYAWAEDKEHCEEYGRMLQADPNKVSARAKKRGLPQLGTLGAGNHYAEIQVVDEIFNEYAAKKMGIDHKGQVCVMIHSGSRGLGHQVATDALVAMEKAMKRDKIIVNDRQLACARIASPEGQDYLKGMAAAGNYAWVNRSSMTFLTRQAFAKVFNTTPDDLDLHVIYDVSHNIAKVEQHVVDGKERTLLVHRKGSTRAFPPHHPLIAVDYQLTGQPVLIGGTMGTCSYVLTGTEQGMTETFGTTCHGAGRALSRAKSRRNLDFQDVLDKLADMGIAIRVASPKLVMEEAPESYKNVTDVVNTCHDAGISKKAIKLRPIAVIKG
Take B8: the binding entry is listed as “binds”.

B9: Peptidyl-prolyl cis-trans isomerase FKBP4 (protein, UniProt Q02790 1-459)
chain: MTAEEMKATESGAQSAPLPMEGVDISPKQDEGVLKVIKREGTGTEMPMIGDRVFVHYTGWLLDGTKFDSSLDRKDKFSFDLGKGEVIKAWDIAIATMKVGEVCHITCKPEYAYGSAGSPPKIPPNATLVFEVELFEFKGEDLTEEEDGGIIRRIQTRGEGYAKPNEGAIVEVALEGYYKDKLFDQRELRFEIGEGENLDLPYGLERAIQRMEKGEHSIVYLKPSYAFGSVGKEKFQIPPNAELKYELHLKSFEKAKESWEMNSEEKLEQSTIVKERGTVYFKEGKYKQALLQYKKIVSWLEYESSFSNEEAQKAQALRLASHLNLAMCHLKLQAFSAAIESCNKALELDSNNEKGLFRRGEAHLAVNDFELARADFQKVLQLYPNNKAAKTQLAVCQQRIRRQLAREKKLYANMFERLAEEENKAKAEASSGDHPTDTEMKEEQKSNTAGSQSQVETEA
For B9, the binding entry is on record as “binds”.
